Among the data in article PMC7725503 are binding values, retold here.

Results are given in words; binding and its absence hold for the method and conditions named.

The test has as its target T1, PMTmApple.
T1 sequence: MGCFFSKRRKADKES
In words: fluorescence cross-correlation spectroscopy (quasi-PIE FCCS); live embryos from the cross of the Wnt3EGFP and PMTmApple transgenic lines; negative control.

For the substance Wnt3EGFP (zebrafish) (ligand), the binding result was “no binding”.
